Experimental data from US6413935B1 (priority 1993, dated 2002).

Assay: general procedure: Fmoc solid-phase peptide synthesis
Settings: conjugation step

| Substance | conjugation yield [%] |
| --- | --- |
| Dodecasaccharide-PADRE Conjugate | 54 |
| lacto-N-fucopentaose II-PADRE conjugate | 45 |
